# According to paper PMC11574364:
# Protein sequences, listed by entry. Tags and fused reporters are not part of them. Lines headed by an entry give the natural chain unless they say otherwise; changes in a name come on top.
# UniProt P0CB38: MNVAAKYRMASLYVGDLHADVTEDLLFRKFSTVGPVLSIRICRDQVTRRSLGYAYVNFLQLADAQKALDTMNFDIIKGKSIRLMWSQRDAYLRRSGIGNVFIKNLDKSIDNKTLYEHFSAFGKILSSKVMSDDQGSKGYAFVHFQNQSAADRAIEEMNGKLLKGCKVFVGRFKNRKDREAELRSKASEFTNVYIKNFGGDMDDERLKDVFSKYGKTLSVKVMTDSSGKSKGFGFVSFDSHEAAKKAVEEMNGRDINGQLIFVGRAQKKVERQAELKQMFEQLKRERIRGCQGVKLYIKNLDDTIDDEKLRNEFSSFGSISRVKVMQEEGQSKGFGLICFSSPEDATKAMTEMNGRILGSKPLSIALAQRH
# UniProt Q9Y3B4: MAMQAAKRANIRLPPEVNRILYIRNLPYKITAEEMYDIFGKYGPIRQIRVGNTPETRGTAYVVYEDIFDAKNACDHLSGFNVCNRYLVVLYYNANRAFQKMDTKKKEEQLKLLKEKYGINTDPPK
# For some assays here: For at least one entry, the source does not settle the construct or the ends of the probe. For some assays here: Negatives hold for the conditions tested.
# Assays:
# RPS3 (Homo sapiens) = RPS3 (Homo sapiens) (UniProt P23396); assay: protein domain microarray probed with biotinylated miRNA; details: Domain array: 20 mM Tris-HCl pH 7.4, 200 mM KCl, 0.2 mM EDTA, 0.05% NP40, 2 ug/ul heparin, overnight 4 C. ORF array: PBS pH 7.0 with RNase inhibitor, 100 ng RNA, 1 h.; high values mean tight binding; recombinant protein; protein details: N-terminal GST; letters put together from the description; counted as no binding
# PABPC4L (Homo sapiens) = PABPC4L (Homo sapiens) (UniProt P0CB38); assay: as above; details: Domain array: 20 mM Tris-HCl pH 7.4, 200 mM KCl, 0.2 mM EDTA, 0.05% NP40, 2 ug/ul heparin, overnight 4 C. ORF array: PBS pH 7.0 with RNase inhibitor, 100 ng RNA, 1 h.; high values mean tight binding; recombinant protein; protein details: N-terminal GST; letters put together from the description; counted as no binding
# SF3B6 (Homo sapiens) = SF3B6 (Homo sapiens) (UniProt Q9Y3B4); assay: as above; details: Domain array: 20 mM Tris-HCl pH 7.4, 200 mM KCl, 0.2 mM EDTA, 0.05% NP40, 2 ug/ul heparin, overnight 4 C. ORF array: PBS pH 7.0 with RNase inhibitor, 100 ng RNA, 1 h.; high values mean tight binding; recombinant protein; protein details: N-terminal GST; letters put together from the description; counted as no binding
# YTHDC1 (Homo sapiens) = YTHDC1 (Homo sapiens) (UniProt Q96MU7); assay: as above; details: Domain array: 20 mM Tris-HCl pH 7.4, 200 mM KCl, 0.2 mM EDTA, 0.05% NP40, 2 ug/ul heparin, overnight 4 C. ORF array: PBS pH 7.0 with RNase inhibitor, 100 ng RNA, 1 h.; high values mean tight binding; recombinant protein; protein details: N-terminal GST; letters put together from the description; counted as no binding
# [1] = tested on: QKI (recombinant His-QKI); assay: fluorescence polarization; details: 2 mM Mg2+; FP: 20 mM HEPES pH 7.4, 150 mM NaCl, 2 mM MgCl2, 1 U/ul RiboLock, 10 mM DTT, 3 nM Cy3-RNA, 5 min, room temperature; recombinant protein; protein details: 6xHis; label: 3' Cy3
# [2] = tested on: QKI (recombinant His-QKI); assay: UV cross-linking, SDS-PAGE mobility shift, anti-His blot; details: 23 or 230 nM QKI; domain array: 20 mM Tris-HCl pH 7.4, 200 mM KCl, 0.2 mM EDTA, 0.05% NP40, 2 ug/ul heparin, 4 C overnight; ORF array: PBS pH 7.0, 1 h; recombinant protein; protein details: 6xHis
sequence,measurement,setting,value
AGAGGUAGUAGGUUGCAUAGUU [let-7d biotin/Cy3],binding signal (fluorescence intensity),RPS3 (Homo sapiens),12.1
CAGUGCAAUGAUGAAAGGGCAU [miR-130b biotin/Cy3],binding signal (fluorescence intensity),RPS3 (Homo sapiens),13.4
UAGCUUAUCAGACUGAUGUUGA [miR-21 biotin/Cy3],binding signal (fluorescence intensity),PABPC4L (Homo sapiens),19.2
same,binding signal (fluorescence intensity),RPS3 (Homo sapiens),8.3
same,binding signal (fluorescence intensity),SF3B6 (Homo sapiens),18.6
same,binding signal (fluorescence intensity),YTHDC1 (Homo sapiens),15.1
UGAGGUAGUAGGUUGCCAUUAU [mutant let-7b-Cy3],binding result,[1],no binding
UGAGGUAGUAGGUUGUAUAGUU [let-7a biotin/Cy3],binding signal (fluorescence intensity),RPS3 (Homo sapiens),9.21
UGAGGUAGUAGGUUGUAUGGUU [let-7c biotin/Cy3],binding signal (fluorescence intensity),RPS3 (Homo sapiens),10.7
UGAGGUAGUAGGUUGUGUGGUU [let-7b (mobility shift)],binding result,[2],binds
UGAGGUAGUAGGUUGUGUGGUU [let-7b biotin/Cy3],binding signal (fluorescence intensity),RPS3 (Homo sapiens),14.8
